Test results published in patent US20120148607A1.

Sequences of proteins named here, by UniProt entry; tags and fusion partners are left off. A change or cut given only in a name is not applied to a line headed by its entry.
UniProt P08581: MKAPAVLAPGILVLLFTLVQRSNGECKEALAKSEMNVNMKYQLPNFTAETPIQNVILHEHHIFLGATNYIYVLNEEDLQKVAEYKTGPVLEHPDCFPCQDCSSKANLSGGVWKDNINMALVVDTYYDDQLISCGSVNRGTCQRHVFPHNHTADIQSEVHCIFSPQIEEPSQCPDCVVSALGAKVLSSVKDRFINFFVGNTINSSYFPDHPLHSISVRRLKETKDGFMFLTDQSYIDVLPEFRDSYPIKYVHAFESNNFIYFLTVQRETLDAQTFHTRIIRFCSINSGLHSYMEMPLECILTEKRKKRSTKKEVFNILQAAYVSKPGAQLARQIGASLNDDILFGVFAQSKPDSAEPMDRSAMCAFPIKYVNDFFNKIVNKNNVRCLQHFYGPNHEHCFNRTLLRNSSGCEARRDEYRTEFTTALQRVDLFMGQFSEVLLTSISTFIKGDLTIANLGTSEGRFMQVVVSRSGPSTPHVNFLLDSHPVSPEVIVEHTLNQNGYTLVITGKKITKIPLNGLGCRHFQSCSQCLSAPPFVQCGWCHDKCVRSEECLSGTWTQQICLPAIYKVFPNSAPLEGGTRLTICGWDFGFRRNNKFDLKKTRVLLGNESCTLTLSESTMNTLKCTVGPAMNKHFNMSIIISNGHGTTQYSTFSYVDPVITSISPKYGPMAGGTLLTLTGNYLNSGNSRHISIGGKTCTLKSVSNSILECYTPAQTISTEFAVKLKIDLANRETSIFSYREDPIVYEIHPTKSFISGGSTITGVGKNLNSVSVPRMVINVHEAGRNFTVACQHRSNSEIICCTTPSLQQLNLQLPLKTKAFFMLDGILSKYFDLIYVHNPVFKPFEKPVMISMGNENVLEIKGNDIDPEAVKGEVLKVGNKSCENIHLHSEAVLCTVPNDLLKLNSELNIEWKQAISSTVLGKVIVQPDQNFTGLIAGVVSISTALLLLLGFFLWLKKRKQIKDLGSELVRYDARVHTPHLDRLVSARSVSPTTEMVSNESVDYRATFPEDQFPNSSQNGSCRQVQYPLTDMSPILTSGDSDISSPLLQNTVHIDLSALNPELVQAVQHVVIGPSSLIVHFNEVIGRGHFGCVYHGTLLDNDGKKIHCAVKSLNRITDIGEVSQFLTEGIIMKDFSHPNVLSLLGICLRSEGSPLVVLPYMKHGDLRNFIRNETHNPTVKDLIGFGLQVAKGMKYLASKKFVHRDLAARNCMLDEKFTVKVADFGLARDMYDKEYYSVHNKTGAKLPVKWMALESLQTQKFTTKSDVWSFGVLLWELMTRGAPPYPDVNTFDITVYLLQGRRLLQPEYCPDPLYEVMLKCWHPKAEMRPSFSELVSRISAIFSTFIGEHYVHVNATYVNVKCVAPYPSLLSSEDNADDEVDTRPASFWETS

B1: 36C4 mAb (antibody, V domains shown)
VH: QVQLVESGPGLVKPSQTLSLTCAVSGGSITTNYYYWSWIRQSPGKGLEWMGVIAYDGSTDYSPSLKSRTSISRDTSKNQFSLQLSSVTPEDTAVYYCARDVRVIATGWATANALDAWGQGTLVTVSS
VL: QSVLTQPPSVSGSPGKTVTISCAGTSSDVGYGNYVSWYQQLPGTAPKLLIFAVSYRASGIPDRFSGSKSGNTAFLTISGLQSEDEADYYCASYRSSNNAAVFGGGTHLTVL
B2: 13E6 mAb (antibody, V domains shown)
VH: QVQLQESGGDLVQPGGSLRLSCAASGFTFDDYVMNWVRQAPGKGLEWISAINWNGGSTYYAESMKGRFTISRDNAKNTLYLQMYSLQSDDTAVYYCVKDTVVSGNGYWGQGTQVTVSS
VL: QSVLTQPPSVSGTLGKTVTISCAGTSSDIGDYNYVSWYQQLPGTAPKLLIYDVNKRASGIPDRFSGSKSGNTASLSISGLQSEDEADYYCASYRSRNDYAFGGGTKLTVL
B3: 48A2 mAb (antibody, V domains shown)
VH: EVQLVQPGVELRNPGASVKVSCKASGYIFTMNSIDWVRQAPGQGLEWMGRIDPEDGGTKYAQKFQGRVTFTADTSTSTAYVELNSLRSEDTAVYYCARVDDYYLGYDYWGQGTQVTVSS
VL: DIVMTQTPTSVTASAGDKVTINCKSSQSVLFSSNQKNYLAWYQQRLGQSPRLLIYWASIRESGVPDRFSGSGSATDFTLTISNFQPEDAAVYYCQQGYSFPYSFGSGTRLEIR

What was measured:
[1] = molecular target: Llama glama c-Met ECD (aa 25-932) with His tag (Llama glama); test: ELISA on immobilised c-Met ECD constructs (200 ng)
[2] = molecular target: c-Met run under reducing conditions (Western Blot) (UniProt P08581); test: Western Blot with c-Met run under reducing conditions
[3] = molecular target: LMet (llama c-Met of Table 16) (Llama glama); test: SPR, 36C4 coupled on CM-5 chip, c-Met construct injected
[4] = molecular target: LMet (llama c-Met of Table 16) (Llama glama); test: ELISA, 36C4 (2 µg/ml) immobilised, c-Met construct added, streptavidin-HRP
[5] = molecular target: Llama glama c-Met ECD (aa 25-932) with His tag (Llama glama); test: condition: about 1e-7 M (last point midway between the ticks 10^-8 and 10^-6); ELISA: 200 ng of the c-Met ECD protein coated on maxisorb plates; mAb dilutions 1 h RT; HRP-conjugated goat anti-human antibody, TMB, OD 620 nm
[6] = molecular target: LMet (llama c-Met of Table 16) (Llama glama); test: SPR, 48A2 coupled on CM-5 chip, c-Met construct injected
[7] = molecular target: LMet (llama c-Met of Table 16) (Llama glama); test: ELISA, 48A2 (2 µg/ml) immobilised, c-Met construct added, streptavidin-HRP

Row | Binder | binding [1] | binding [2] | binding [3] | binding [4] | binding [5] | binding [6] | binding [7]
1 | B1 | no binding | no binding | no binding (tested: 10 µg/ml) | no binding | no binding |  | 
2 | B2 | no binding |  |  |  | no binding |  | 
3 | B3 | no binding | no binding |  |  |  | no binding (tested: 10 µg/ml) | no binding

These are yes or no findings as the source states them, for the method shown.
